Read-outs that look alike come from different tables or passages of the source. These are yes or no findings as the source states them, for the method shown. In cells and extracts the contact can be indirect. Here binding means that the protein was enriched with, or labelled near, the bait; the list need not be complete. Blank lines part the entries; values can stand above or below the molecule they belong to.
Assays:
[1] = molecular target: P_(hyp7)::PTPN-22::TurboID (C. elegans) (UniProt Q95Y26); assay: proximity labelling; P_(hyp7)::PTPN-22::TurboID from a multicopy array in mixed-stage worms at 25°C, N2 as control, three technical replicates; RIPA lysate on streptavidin-coated magnetic beads at 4°C for 16 hours, on-bead digestion, DIA LC-MS/MS; enriched ≥2-fold, adjusted p <0.05
[2] = molecular target: PTPN-22::TurboID (C. elegans) (UniProt Q95Y26); assay: proximity labelling; endogenously tagged PTPN-22::TurboID in mixed-stage worms at 22°C, N2 as control, four replicates; RIPA lysate on streptavidin-coated magnetic beads 1 hour at room temperature, on-bead digestion, DIA LC-MS/MS; enriched ≥2-fold, adjusted p <0.05
[3] = molecular target: P_(hyp7)::PTPN-22::TurboID (C. elegans) (UniProt Q95Y26); assay: proximity labelling; P_(hyp7)::PTPN-22::TurboID from a multicopy array in mixed-stage worms at 25°C, N2 as control, three technical replicates; RIPA lysate on streptavidin-coated magnetic beads at 4°C for 16 hours, on-bead digestion, DIA LC-MS/MS; enriched ≥2-fold, adjusted p <0.05; remark: listed apart in the source

The chains behind the UniProt entries cited, without tags or fusion partners. Where a name states a change or a piece, a line headed by the entry shows the natural chain unless it says otherwise.
UniProt Q95Y26: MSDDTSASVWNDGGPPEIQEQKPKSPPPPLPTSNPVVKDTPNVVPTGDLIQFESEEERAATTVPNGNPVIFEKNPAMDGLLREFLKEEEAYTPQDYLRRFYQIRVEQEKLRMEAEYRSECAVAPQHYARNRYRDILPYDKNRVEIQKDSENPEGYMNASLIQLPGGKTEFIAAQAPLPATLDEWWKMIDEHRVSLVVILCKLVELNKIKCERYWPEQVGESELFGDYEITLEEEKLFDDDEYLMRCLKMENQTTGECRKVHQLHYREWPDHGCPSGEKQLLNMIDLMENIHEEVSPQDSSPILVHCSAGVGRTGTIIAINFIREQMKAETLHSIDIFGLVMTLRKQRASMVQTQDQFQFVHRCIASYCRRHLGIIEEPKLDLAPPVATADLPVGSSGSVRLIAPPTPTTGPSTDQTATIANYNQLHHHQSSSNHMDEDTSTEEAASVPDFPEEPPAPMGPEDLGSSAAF
UniProt Q21253: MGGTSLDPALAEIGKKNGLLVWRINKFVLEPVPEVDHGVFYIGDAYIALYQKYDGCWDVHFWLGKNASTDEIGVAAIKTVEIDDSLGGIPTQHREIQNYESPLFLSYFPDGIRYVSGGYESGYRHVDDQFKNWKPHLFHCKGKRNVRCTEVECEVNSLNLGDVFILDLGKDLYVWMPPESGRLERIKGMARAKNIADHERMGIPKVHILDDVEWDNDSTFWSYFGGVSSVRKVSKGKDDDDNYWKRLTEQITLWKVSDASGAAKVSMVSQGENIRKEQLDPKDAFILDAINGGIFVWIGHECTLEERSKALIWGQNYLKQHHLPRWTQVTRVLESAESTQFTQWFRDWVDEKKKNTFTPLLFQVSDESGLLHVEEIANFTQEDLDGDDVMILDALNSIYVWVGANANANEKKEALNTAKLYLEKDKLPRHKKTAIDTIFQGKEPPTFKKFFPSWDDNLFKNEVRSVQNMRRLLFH

Molecule: GSNL-1 (from UniProt Q21253 1-475)
- binding [1]: binds

B4: CAP-1 (protein, UniProt P34685 1-282)
chain: MSEISDAEKVRIASDFIKHAPPGEFNEVFNSVRMLLENDDLLKNKCVNAIAQYNVGQFVPVKLDGVAKQTLITPYNDLGNGRFYDEVSKKSFKYDHVRKEAADLQPHPAESGITEQWRQALQTQLDIYIDDHYAKSGTGVVFARNGVFTICIESHQFQPKNFCNGRWRSEWNVPVGDGKSGSQEMKGKILSQVHYYEDGNVQLFSEKEPVLKVNVSADFDKTAKEIIHAISEEETIYQNAVQENYANMSDTTFKALRRQLPVTRAKMDWNKAQTYRIGQEMK
- binding [3]: binds
- binding [2]: binds

B6: DLG-1 (protein, UniProt G5ECY0 1-967)
chain: MSHESSEKAHKAIENVEDYCQTLTRHGNEELRTNLERVITTFKSNLMHSLLDIHDLYEQTLLSERKSDAEKNMEVRRVIERLEGGPHSYNSRPAATTSTSNYNLSSTTPLISDLRDRGGFSYLNGGGLGNGLGNGLGNGLLSSPYNSSSTHYLHERQRQTSHDGTWRETTTRTVDTPSGLERRVVEHTGVIDDHGRKWELENIVLEKGHTGLGFSITGGMDQPTEDGDTSIYVTNIIEGGAALADGRMRKNDIITAVNNTNCENVKHEVAVNALKSSGNVVSLSLKRRKDEAFLPIGGNFGGSTSYLRSGVTPSVSAGNLQHAIHSPSAPIHPPPPPPVHHGSLSQLSVGQYRSTRPNTSVIDLVKGARGLGFSIAGGQGNEHVKGDTDIYVTKIIEEGAAELDGRLRVGDKILEVDHHSLINTTHENAVNVLKNTGNRVRLLIQQGTGAIFNDSASQQFMPTTPILRPSSVQDYNRSQMGSQSHLSYGGPLNTSYSSQAPIAIPLEPRPVQLVKGQNGLGFNIVGGEDNEPIYISFVLPGGVADLSGNVKTGDVLLEVNGVVLRNATHKEAAEALRNAGNPVYLTLQYRPQEYQIFESKIEKLRNDVIAQSRMGTLSRKSEYVRALFDYDPSRENSVAPHRSMGFNYGDILHIINSSDDEWWTARKVHENGEETAEGVIPSKKRVEKRERLRRKQVNFNSGSQSLGRNSSTTGLENRRGSRSQLSFSRKFPFVKSTDRLNDLNEESSNVAEEPVWSYQAVEQQAINYVRPVIILGALKDRINDELVNRDPSKFSSCVPHTSRPPREGEVNGRDYYFVNKHNMEEDVKNNLFIEAGQFQNNLYGTSIQSVRDVANQGRHCILDVSGNAIRRLQSNANIQPISIFIKPSSAQQILELDSQLATNRQDDRAMSGEEAQAQYSRCHRIEQTFGDLFTQEISNVHSANDVLSKVYSIISRESQTPIWVPRH
- binding [3]: binds

B7: CAP-2 (protein, UniProt P34686 1-270)
chain: MGEQQLDCALDLMRRLPPQHCDKNLTDLIDLCPHLVDDLLSTIDQPLKIAADRETGKQYLLCDYNRDGDSYRSPWSNTYDPPLEDGQLPSEKRRKMEIEANAAFESYRDLYFEGGVSSVYFWDLDNGGFAGIVLIKKEGDGAKNITGCWDSIHVIEITERARQAHYKLTSTIMLWLQTNKSSSGVMNLGGSLTRQHEMDAPINDQNTHLANMGRMIEDQESKMRLTINEIYFGKTKKVMSDLRSTEKQSELEKQDEIVRELNNAMANRGN
- binding [3]: binds
- binding [2]: binds

Now from value to molecule:

- binding [2]: binds
B1: IMA-3 (protein, UniProt Q19969 1-514)
chain: MSSNRQAYYKNNAKEQIGKEKRNEEVVSIRKDKREEAISKRRNINTQIEDDSETSTTPPGPFDANLLRLTVAAAQSSDPAEQLTAVQQARKMLSTDRNPPIDDLIGSGILPVLVQCLSSTDPNLQFEAAWALTNIASGTSEQTQAVVNAGAVPLFLQLLSCGNLNVCEQSVWALGNIIGDGPHFRDYCLELGILQPLLQFINPEIPIGFLRNVTWVIVNLCRCKDPAPSPAVVRTILPALSLLIHHQDTNILIDTVWALSYLTDGGNEHIQMVIEAQVVTHLVPLLGHVDVKVQTAALRAVGNIVTGTDEQTQLVLDSGVLRFMPGLLAHYKEKINKEAVWFVSNITAGNQQQVQDVFDAGIMPMIIHLLDRGDFPTQKEAAWAISNVTISGRPNQVEQMVKLGVLRPFCAMLSCTDSQIIQVVLDGINNILKMAGEAAEQVTSEIEECGGLDKIENLQNHENEDIYKLAFEIIDNFFSSDDETGNVEGAQSSAFGGDVPPVPDAPNGGWNFGK

- binding [3]: binds
B2: IFB-1 (protein, UniProt Q19289 1-589)
chain: MSSHKESSEYEMQYRSTIQPRTAVRSQSRQSGNYVSGGNGAGSGGRVLKMVTEMGSATVGGISPALSANAAKSFLEATDKEKKTLQGLNDRLGNYIDRVKKLEEQNRKLVADLDELRGKWGKDTSEIKIKYSESLSTARKDIDDAARRKAEVDVKVARHRDDLAEYRSRYEDIQQRRESDREKISQWTNAIADAQSEVEMLRARFKQLTDEEKRVTADNSRIWEELQKARSDLDDETIGRIDFQNQVQTLMEELEFLRRVHEQEVKELQALLAQAPADTREFFKNELALAIRDIKDEYDIIAKQGKQDMESWYKLKVSEVQGSANRANMESTYQRDEVKRMRDNIGDLRGKLGDLENKNSLLEKEVQNLNYQLTDDQRQYEAALNDRDATLRRMREECQTLVAELQALLDTKQMLDAEIAIYRKMLEGEETRVGLTQMVEQAVKTHSLQQQENTDSTRSVRGEVSTKTTFQRSAKGNVTISECDPNGKFIKLENSHRNKDENVGEHKIRRKLDGRREIVYSIPANVVIKPGKNLTIYARDQGGINNPPESLVFDGENTWGIGANVVTSLVNKDGEERATHTQKTIQSGQ

- binding [3]: binds
B3: PAT-12 (protein, UniProt Q95QA6 1-663)
chain: MTSHIATETSVNRWSTEPVVREEGRPPGPEDFPSTKQGREQDGNVIGITPNYKIGEQKPNSELNLGKTGSLPRGSGDYKMTYRQEDYKQTIIDPKVITNANMPYISTRIPDPRRNLAGDFPSEHSKSKIKLDPLEQRRFRSSESRPITTSNYLAESVDRHREMEASRLREYLKAKENEANQPWNKPGWPGPKKNDESLRELETMKQRIETLKRDANKGPVNAELDELSKRAEELRKRDGWSKYKLVESDIYKTDPDPMPANIKDQVRDLLESRNSVETTTTQRDHDKSGYVTDVSTATWNFSTVDYSPRSVVSMNGASHDILKDDKPRSIMKRNDLVRREQMLYPTVDTQVVKSVVKKPTVTETVQRFEETRRTEEVERRVQRREKKERRSRHHSSSRHHSGWEGHTGGYQGHRSSSLSRGGHGGGGQETYYRQETTRRQQHNNYDDNFNRGIAHARYGSLSDSLRRGELQYVPNGEVRQSFYRDGSNGGQRMHKSYSTRDVFTGDGYDDRRSVSSFRRGSQQQVSPFVEFPPTLPRRGGGGDYRREEDAYFRPVSKSRSYADWDDAGRAGMGREVRRYDDDMSRLEAEFRDSLLMPMPAGNMNERDHRTEQLPGGYETFNKERHANSGRRSGRDGKPVDFNEATQEYNYKREQTLNDDRRRR

- binding [3]: binds
B5: PAT-2 (receptor, UniProt P34446 26-1226)
chain: FNIDTKNVVVHHMAGNYFGYSLDFYHEQKGMPVLVVGAPEAESNNPNLAGIRRPGAVYACSVNRATCREVHVDKMKGNLKKLNGSHLVPIEEKSHQFFGATVRSNDKHDKIVVCAPKYTYFYSKFEVIEPVGTCFYAENGFDNAEEFSSCKQEPARHGRHRLGYGQCGFSAAVPGKKNQNRVFIGAPGVWYWQGAMFSQNIKNQTDRPNTEYGSKEYDHDMMGYSTATGDFDGDGIDDIVAGVPRGNDLHGKLVLYTSKLKMMINLTDEVSTQHGQYCGGSVAVADVNKDGRDDIIMGCPFYTDYGSVKDAKTQERKPQYDVGKVIVMLQTAPGVFGKQIAVVGDDQWGRFGHAVAAAGDLNLDGYNDVIVGAPYAGKNKQGAVYVIHGSKDGVRELPTQKIEGANIGHGNIKSFGFSLTGNEDVDGNGMPDIAVGAWKSGNAAVLLTKPVVTVTGQTEPESALISVEDKNCDVDGKLGKQACKHINTCFKYEGKGDTPNDLEFDLRFNLDDHSPEPRAYFLQKDVKSDRSIKVAQGSKTRDHPSSIEQRVRLEKGRQKCFRHRFFASSTMKDKLSPIHWSVNYTYVESKTGKLRGDKLEPAIDTTVPLSFQNKINIANNCGKDDLCVPDLKVTAVADREKFLLGTQDNTMLINVTVQNGGEDSYETKLYFDVPQGFEYGGIESVGGDGSKSAPACSPTSDEPDSDGKWTFACDLGNPLPANKVVSSVVRVTASSDKPPLAPISINAHVNSSNDEEAHTVADNKVTFTIPVDFKNQLSLNGRSNPEQVDFSMTNKTRVDAFDDNEIGPVVSHLYQISNRGPSEVDSATLDIFWPSFSTEGGHLLYIITEPVVNPPNKGRCRVKQLQNVNPLNLRITNEHVPTEPPVAKTPNEYSREEDDESYEDETTTQSQSTRHQSTQHQTHHQSGPVHVYEKDEEKIRQNTGNWQYVEDKKKKGDYEYIPDDQEYDGDDFEEEDDEDFDRAGSKRVKRNPTPKKKKKGGEHRGEPRSDKARFSDLREAVKLSKEAGGVVDYKGPLSRASVDCNSLRCTHIECDIYDLKEDEFVLVEIFSRLYTNTLVDEKNPGGDISSLALARVTSTKYNLPHKPTLITAVSTNMNAIASEEGRDLPWWLYLLAILIGLAILILLILLLWRCGFFKRNRPPTEHAELRADRQPNAQYADSQSRYTSQDQYNQGRHGQML

- binding [2]: binds
B8: IMA-2 (protein, UniProt P91276 1-531)
chain: MTLTETSLSHNAEEGKDEGGRLQQYKNLTKHEELRRRRTECSVEIRKQKGADMMMKRRNIVDVDEGGNSESELEEPEKISHQQSSTRLSNDEIRAILSNNPSEDDMVRCFESLRKSLSKTKNPPIDEVIHCGLLQALVQALSVENERVQYEAAWALTNIVSGSTEQTIAAVEAGVTIPLIHLSVHQSAQISEQALWAVANIAGDSSQLRDYVIKCHGVEALMHLMEKVDQLGDSHVRTIAWAFSNMCRHKNPHAPLEVLRVLSKGLVKLVQHTDRQVRQDACWAVSYLTDGPDEQIELARESGVLPHVVAFFKEAENLVAPALRTLGNVATGNDSLTQAVIDLGSLDEILPLMEKTRSSSIVKECCWLVSNIIAGTQKQIQAVLDANLLPVLINVLKSGDHKCQFEASWALSNLAQGGTNRQVVAMLEDNVVPALCQALLQTNTDMLNNTLETLYTLMLTVQNGYPHKVDILHDQVEENGGLDSLERLQESQSEQIYTQAYRIITQFFTDDDAGEKESHENADPQDNKWSF
